The full ranking holds about 33,000 sequences; the median of “E-score (-0.5 to 0.5)” is about -0.016, and the highest 2% start at about 0.3. The list shows a part of the results.

The experiment deals with T1, Yer184c (UniProt P39961).
T1 sequence: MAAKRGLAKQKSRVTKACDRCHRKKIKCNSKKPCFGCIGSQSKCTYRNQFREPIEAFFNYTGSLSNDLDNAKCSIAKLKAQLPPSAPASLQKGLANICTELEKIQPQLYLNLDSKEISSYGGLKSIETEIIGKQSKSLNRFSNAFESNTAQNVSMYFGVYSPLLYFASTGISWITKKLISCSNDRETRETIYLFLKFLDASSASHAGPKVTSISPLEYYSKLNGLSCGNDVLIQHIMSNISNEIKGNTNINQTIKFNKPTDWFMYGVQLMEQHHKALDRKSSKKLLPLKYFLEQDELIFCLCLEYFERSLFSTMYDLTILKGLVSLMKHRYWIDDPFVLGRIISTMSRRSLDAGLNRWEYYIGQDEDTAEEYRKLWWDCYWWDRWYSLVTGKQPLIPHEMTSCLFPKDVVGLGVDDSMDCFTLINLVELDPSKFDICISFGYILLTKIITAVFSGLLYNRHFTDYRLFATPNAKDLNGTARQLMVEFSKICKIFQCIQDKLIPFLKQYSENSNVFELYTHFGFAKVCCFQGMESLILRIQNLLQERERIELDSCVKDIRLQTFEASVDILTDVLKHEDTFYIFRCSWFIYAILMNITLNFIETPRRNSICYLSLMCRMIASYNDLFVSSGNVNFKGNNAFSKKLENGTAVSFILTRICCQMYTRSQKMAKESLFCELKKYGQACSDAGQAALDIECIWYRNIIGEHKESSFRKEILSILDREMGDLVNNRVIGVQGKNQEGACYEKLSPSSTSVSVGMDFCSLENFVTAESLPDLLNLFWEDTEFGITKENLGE
Briefly: PBM E-score (8-mer binding enrichment) (E-score (-0.5 to 0.5)); higher = stronger / more preferred TF binding. Particulars: protein concentration: 100 nM; construct: GST-full length. Here is the method:
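Universal 'all 10-mer' protein binding microarrays (Agilent AMADID 015681) probed with GST-tagged S. cerevisiae TFs (full-length or DBD) made by in vitro transcription/translation (PURExpress), about 100-200 nM. Bound TF was detected with fluorescent anti-GST. Each ungapped 8-mer (which stands for itself and its reverse complement) is scored by the PBM enrichment score (E-score), a modified Wilcoxon-Mann-Whitney statistic from -0.5 to +0.5, computed with the Universal PBM Analysis Suite. Scale: above 0.35 generally sequence-specific binding.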
On to AGTCTTCC, for which the “PBM E-score” value was -0.0346.

With CGGATGCA, the “PBM E-score” value came to 0.128.

GAATTTGC: the “PBM E-score” value stood at 0.13.

As for GGTGAGAC, the “PBM E-score” value was -0.209.

Consider AGGAAAGC, for which the “PBM E-score” value is -0.0785.

Turning to ACTAAAGT, the “PBM E-score” value is -0.0105.

As for CGACAATC, the “PBM E-score” value turned out to be 0.0409.

In the case of AGACGTAT, the “PBM E-score” value is -0.135.

For GGCGCACC, the “PBM E-score” value was -0.0534.

For the sequence CCAAACCA, the “PBM E-score” value was -0.119.

For AGTGATCA, the “PBM E-score” value was -0.0276.

For the sequence GTTATTAA, the “PBM E-score” value was found to be 0.225.

In the case of AACTGCAG, the “PBM E-score” value is -0.152.

Consider AACGCGAG, for which the “PBM E-score” value is -0.0244.

For the sequence TAGGATCA, the “PBM E-score” value is -0.0016.

For the sequence GACACTTA, the “PBM E-score” value was -0.0563.

For the sequence GCTGCAGA, the “PBM E-score” value stood at 0.0256.

For AAACACTT, the “PBM E-score” value is -0.072.

On to ATGTCAAA, for which the “PBM E-score” value stood at 0.194.

For GCAACCCA, the “PBM E-score” value was -0.112.

As to GCCCCGGA, the “PBM E-score” value was 0.234.

In the case of ACACGCAA, the “PBM E-score” value turned out to be 0.0456.

As for AGTAGTGG, the “PBM E-score” value was -0.0968.

As to CGGGTCTA, the “PBM E-score” value came to 0.0467.

On to ACTGACCC, for which the “PBM E-score” value was -0.0524.

As for ACATGTCA, the “PBM E-score” value was -0.12.

In the case of AGGCGGGC, the “PBM E-score” value is -0.225.

In the case of AATTAGAA, the “PBM E-score” value was found to be 0.0727.

Consider ATAAAGGC, for which the “PBM E-score” value was -0.0884.

In the case of ACCCGTAC, the “PBM E-score” value was -0.0295.

AGAACTCA: the “PBM E-score” value was -0.0229.

Turning to GGCAACGA, the “PBM E-score” value is 0.156.

On to CGGTCTCC, for which the “PBM E-score” value was -0.0507.

With ACGATACG, the “PBM E-score” value is -0.186.

Consider CGAAGGGA, for which the “PBM E-score” value was -0.149.

With CTAGTCCA, the “PBM E-score” value is -0.119.

Consider CCCGACCG, for which the “PBM E-score” value worked out at 0.101.

With GAATCGGA, the “PBM E-score” value came out at 0.318.

Regarding AGTTTGAT, the “PBM E-score” value was 0.103.

On to CAAAGTGA, for which the “PBM E-score” value amounted to 0.00689.

Turning to CAACCCCA, the “PBM E-score” value is -0.124.

With CAGACACC, the “PBM E-score” value is -0.103.

As for AGACACCC, the “PBM E-score” value was -0.121.

Consider AATCAAGC, for which the “PBM E-score” value was -0.0867.

As for CAACTTAC, the “PBM E-score” value was -0.142.

As for CTGGCCCA, the “PBM E-score” value was -0.316.

Turning to AGGTGTCG, the “PBM E-score” value was -0.211.

For the sequence AGCCGCTA, the “PBM E-score” value is -0.0651.

Take CATCAGGA: the “PBM E-score” value was 0.215.

Regarding ATATGATA, the “PBM E-score” value was determined as 0.325.

For the sequence TCAGAGCA, the “PBM E-score” value was -0.228.

As for AAATTCCA, the “PBM E-score” value was 0.216.

For GCACGGCA, the “PBM E-score” value was found to be 0.166.

For the sequence GGGAGGTA, the “PBM E-score” value was -0.193.

As to ACTCAAAT, the “PBM E-score” value came out at 0.00662.

Take ACAACAAC: the “PBM E-score” value was found to be 0.172.

For GACTTAAC, the “PBM E-score” value was -0.296.

Consider ACGCTGTG, for which the “PBM E-score” value is 0.0483.

With AATTAATA, the “PBM E-score” value turned out to be 0.407.

On to ATCACGTG, for which the “PBM E-score” value was determined as 0.0978.

For the sequence ATAATATA, the “PBM E-score” value stood at 0.323.

Take CGCTCCAG: the “PBM E-score” value was -0.093.

Turning to GAGTGCGC, the “PBM E-score” value is -0.0277.

ACTTATTC: the “PBM E-score” value worked out at 0.0575.

For the sequence ACCCGGTC, the “PBM E-score” value worked out at 0.065.

As to AAGCTTCG, the “PBM E-score” value was found to be 0.0989.

TCGTGCAA: the “PBM E-score” value worked out at 0.189.

In the case of CGCATGAC, the “PBM E-score” value is -0.0474.

On to CCGGCTTC, for which the “PBM E-score” value turned out to be 0.307.

With AAGTTGAT, the “PBM E-score” value turned out to be 0.0745.

With GAGGGTGC, the “PBM E-score” value was -0.254.

Consider CCTCTCTC, for which the “PBM E-score” value is -0.249.

In the case of AGTGTCTG, the “PBM E-score” value is 0.0373.

Regarding ACTGATGC, the “PBM E-score” value was -0.143.

Consider CATAATCA, for which the “PBM E-score” value came to 0.121.

Consider CCTCACGA, for which the “PBM E-score” value was -0.214.

TGCGAAAA: the “PBM E-score” value came out at 0.233.

For TAACATTA, the “PBM E-score” value is 0.053.

Consider AGCAAAGC, for which the “PBM E-score” value was -0.157.

For GTCCGGGA, the “PBM E-score” value turned out to be 0.342.

For the sequence ATAATTCC, the “PBM E-score” value is 0.162.

As to ACCTACCC, the “PBM E-score” value is -0.183.

For ATCTCACA, the “PBM E-score” value was -0.0208.

Take CCAATATC: the “PBM E-score” value amounted to 0.102.

For the sequence CGTGCGAC, the “PBM E-score” value is -0.0614.

TAGGACCA: the “PBM E-score” value was -0.0434.

For the origin of these results see the supplement of paper PMC3334620.
